Laboratory results as given in US20110117106A1, “USES OF CALPAIN INHIBITORS TO INHIBIT INFLAMMATION” (priority 2008, published 2011).

Test system: PMN recruitment into the lung and airway lumen
Test: Adult C57BL/6 mouse P. aeruginosa infection with bronchoalveolar lavage
Assay type: in vivo
Conditions: 2 hr infection
Protocol: To test the effects of calpain inhibition on the transmigration of PMNs into P. aeruginosa-infected airways, bronchoalveolar lavage (BAL) experiments were performed on adult C57BL/6 mice. Mice were treated with i.p. calpeptin or vehicle and intranasally infected with P. aeruginosa for 2 hr. PMNs from BAL or whole-lung suspension were quantified by flow cytometry. Compared to vehicle-treated controls, calpeptin-treated mice had 37% fewer PMNs recruited into the whole lung and 90% fewer into the airway lumen, indicating a more pronounced effect on the epithelial junctions (FIG. 8D). […] Thus, recruitment of PMNs into the murine lung and airway lumen in response to P. aeruginosa is facilitated by calpain activity and its effects on junctional proteins at the mucosal surface.

**Q.** With `CCCC[C@@H](C=O)NC(=O)[C@H](CC(C)C)NC(=O)OCc1ccccc1` [calpeptin, Z-Leu-Nle-CHO] as the compound, how does the “CXCL1 (KC) levels in the lung” value read?
**A.** Its value is “did not affect”.
